From patent publication US5759835A, “Bacterial nitric oxide synthase” (priority 1995, dated 1998)

Test system: NOSNoc
Test: NOSNoc activity, oxyhemoglobin spectrophotometric assay (kinetics and inhibition)
Format: biochemical, Nocardia species (NRRL 5646)
Conditions: for Ki for L-NOHA as substrate relative to Ki for L-arginine as substrate: times higher / fold greater; for Km relative to that for L-arginine: Km of L-NOHA greater than Km of L-arginine
Method: Assays for NOS activity were carried out using a Shimadzu 160 spectrophotometer by observing the increase in absorbance at 401 nm at 25° C. A typical sample assay contained 50 mM potassium phosphate buffer (pH 7.5), 4 μM oxyHb, 100 μM L-arginine of L-NOHA (for kinetic experiments), 100 μM NADPH, 1 mM CaCl2, 10 μM FAD, 10 μM FMN, 80 μM H4 B, 150 μM DTT and 0.1-2 μg enzyme in a final volume of 1 ml. For assays, the reference cuvette contained all components except for L-arginine or L-NOHA. All assays were initiated by adding enzyme.

Compound	Ki for L-NOHA as substrate relative to Ki for L-arginine as substrate	Km relative to that for L-arginine	Km relative to that for L-arginine (listed as L-NOPHA) [fold]
N=C(NCCC[C@H](N)C(=O)O)N[N+](=O)[O-] [N^G -nitro-L-arginine]	approximately 1.2 fold	–	–
N=C(NO)NCCC[C@H](N)C(=O)O [N^G -Hydroxy-L-arginine]	–	about 3 fold	~3
CNC(=N)NCCC[C@H](N)C(=O)O [N^G -methyl-L-arginine]	0.6 fold	–	–
